For one molecule, binding results are on record in publication PMC8888506.

The test concerns the target T1, Cdc55 (regulatory subunit of the PP2A-Cdc55 phosphatase), Pk-tagged (S. cerevisiae) (UniProt Q00362).
T1 sequence: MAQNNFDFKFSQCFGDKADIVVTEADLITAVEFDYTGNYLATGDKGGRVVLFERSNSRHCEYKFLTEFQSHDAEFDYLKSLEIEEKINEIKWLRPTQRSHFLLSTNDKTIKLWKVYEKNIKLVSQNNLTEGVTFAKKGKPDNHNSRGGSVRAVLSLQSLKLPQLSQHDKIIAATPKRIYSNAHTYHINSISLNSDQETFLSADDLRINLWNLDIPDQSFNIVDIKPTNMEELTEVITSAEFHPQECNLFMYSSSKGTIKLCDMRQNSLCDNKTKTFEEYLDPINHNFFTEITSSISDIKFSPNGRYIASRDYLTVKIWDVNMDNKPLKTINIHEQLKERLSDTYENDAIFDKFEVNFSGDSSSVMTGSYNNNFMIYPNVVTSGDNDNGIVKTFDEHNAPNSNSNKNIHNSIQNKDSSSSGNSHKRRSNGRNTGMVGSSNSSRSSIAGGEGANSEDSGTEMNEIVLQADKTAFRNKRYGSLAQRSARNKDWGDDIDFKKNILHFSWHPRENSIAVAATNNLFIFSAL
The experiment in a line: co-IP; anti-Pk (SV5-Pk1) immunoprecipitation of Pk-Cdc55 on protein A Dynabeads from yeast extracts prepared at metaphase, anaphase and cytokinesis (Cdc20 depletion and re-addition); washes at incremental KOAc; Chs2 detected by western blot; strain Y1318 without the Pk tag as negative control.

No constants are given. Whether binding was seen depends on the method and setting. In cells and extracts the contact can be indirect. Some binding calls cover weakened binding; strength is not graded here. Tags and fused reporters may be left off the sequences shown.

B1: Chs2 (chitin synthase II) (protein, UniProt P14180 1-963)
chain: MTRNPFMVEPSNGSPNRRGASNLSKFYANANSNSRWANPSEESLEDSYDQSNVFQGLPASPSRAALRYSPDRRHRTQFYRDSAHNSPVAPNRYAANLQESPKRAGEAVIHLSEGSNLYPRDNADLPVDPYHLSPQQQPSNNLFGSGRLYSQSSKYTMSTTSTTAPSLAEADDEKEKYLTSTTSYDDQSTIFSADTFNETKFELNHPTRQQYVRRANSESKRRMVSDLPPPSKKKALLKLDNPIPKGLLDTLPRRNSPEFTEMRYTACTVEPDDFLREGYTLRFAEMNRECQIAICITMYNEDKYSLARTIHSIMKNVAHLCKREKSHVWGPNGWKKVSVILISDGRAKVNQGSLDYLAALGVYQEDMAKASVNGDPVKAHIFELTTQVSINADLDYVSKDIVPVQLVFCLKEENKKKINSHRWLFNAFCPVLQPTVVTLVDVGTRLNNTAIYRLWKVFDMDSNVAGAAGQIKTMKGKWGLKLFNPLVASQNFEYKISNILDKPLESVFGYISVLPGALSAYRYRALKNHEDGTGPLRSYFLGETQEGRDHDVFTANMYLAEDRILCWELVAKRDAKWVLKYVKEATGETDVPEDVSEFISQRRRWLNGAMFAAIYAQLHFYQIWKTKHSVVRKFFLHVEFLYQFIQMLFSWFSIANFVLTFYYLAGSMNLVIKHGEALFIFFKYLIFCDLASLFIISMGNRPQGAKHLFITSMVILSICATYSLICGFVFAFKSLASGTESHKIFVDIVISLLSTYGLYFFSSLMYLDPWHMFTSSIQYFLTLPAFTCTLQIFAFCNTHDVSWGTKGSTQESKQLSKAIVVQGPDGKQIVETDWPQEVDKKFLEIKSRLKEPEFEESSGNEKQSKNDYYRDIRTRIVMIWMLSNLILIMSIIQVFTPQDTDNGYLIFILWSVAALAAFRVVGSMAFLFMKYLRIIVSYRNKVEGSGSWEVSKLDLPNVFHKKG
Take B1: the binding entry is listed as “binds”.
